Measurements reported in paper doi:10.1101/2022.01.12.476023.
These are yes or no findings as the source states them, for the method shown. A result given as binding can be weak or reduced; the word gives no strength.

Molecular target: PLP^2539-2895, expressed in S2 cells for the mitochondrial recruitment assay (Drosophila)
Experiment: mitochondrial recruitment

binding: binds
B1: KHC^601-849, expressed in S2 cells for the mitochondrial recruitment assay (domain or fragment, UniProt P17210 601-849)
chain: GTDASKVEEDFTMARLFISKMKTEAKNIAQRCSNMETQQADSNKKISEYEKDLGEYRLLISQHEARMKSLQESMREAENKKRTLEEQIDSLREECAKLKAAEHVSAVNAEEKQRAEELRSMFDSQMDELREAHTRQVSELRDEIAAKQHEMDEMKDVHQKLLLAHQQMTADYEKVRQEDAEKSSELQNIILTNERREQARKDLKGLEDTVAKELQTLHNLRKLFVQDLQQRIRKNVVNEESEEDGGSLA
